# The whole screen tested about 1,100 compounds, of which fewer than 10 were called active. Another 6% or so got no clear call; they are omitted. Calls follow the shape of the dose curve; as a rule, active = well fitted cell-killing curve with a large enough effect; inconclusive = small, poorly fitted or top-dose-only effect; inactive = flat fitted curve, though single readings scatter. Some of the results follow.
# Experiment: qHTS of Nrf2 Activators: Hit Validation in Cytotox Assay;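 also: compound exposure lasted 24 hours before the ATP readout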; as to activity change, negative = cytotoxicity: 0% is about no effect
# Details: Cell viability counter-screen for Nrf2 activator hits; series mostly up to 46.1 µM; activity change, negative = cytotoxicity: at the top concentration
# Excerpt: Many diseases have some form of oxidative stress injury and ties to inflammation, causing a host of problems for the patient. The antioxidant response element (ARE) plays an important role in alleviating the harmful effects of oxidative stress. The antioxidant response element (ARE) is a transcriptional regulatory element involved in the activation of genes coding for a number of antioxidant proteins and detoxifying enzymes. These enzymes work in concert to protect tissues from oxidative insults and chemical toxicities in human hepatocytes and immune cells. The protective effects of ARE activation are primarily triggered through Nrf2 (NF-E2-related factor) binding to and activating AREs. It is known that Nrf2 controls the production of over 250 antioxidant and detoxification proteins (Hu et al., 2006), thereby protecting tissues by increasing cellular antioxidant content and suppressing inflammatory signaling pathways. The transcription factor Nrf2 is a central link between oxidative chemicals, such as phenolic antioxidants and electrophilic compounds, and the activation of ARE. Nrf2 levels are constitutively low as a consequence of its interaction with Keap1, which targets its degradation (Zipper and Mulcahy, 2002). Electrophiles react with key cysteine residues in Keap1, releasing Nrf2 and allowing its translocation to the nucleus. Once within the nucleus, Nrf2 complexes with coactivators such as p300, and binds to the AREs to induce gene transcription of cytoprotective enzymes, resulting in the prevention of toxicity. Activation of Nrf2 protects tissues by increasing cellular antioxidant content and suppressing inflammatory signaling pathways. Identifying novel and potent Nrf2 activators by using the AREc32 cell line to detect ARE activation by small molecules will lead to the identification and development of probes to study protective pathways in multiple tissues. These specific probes are essential to study the ARE pathway, and eventually to determine whether this pathway does activate genes that could protect against a host of diseases, including cardiovascular diseases, obesity, diabetes, Alzheimer's, and Parkinson's disease.
# This project's aim is to identify novel and potent Nrf2 activators by using the AREc32 cell line to detect ARE activation by small molecules, which will lead to the identification and development of probes to study the ARE pathway. Cytotoxic compounds are flagged as active, and inactivity is desired in this assay.
# NIH Chemical Genomics Center [NCGC]
# NIH Molecular Libraries Probe Centers Network [MLPCN]
# Assay Submitter (PI): Curtis Klaassen, University of Kansas Medical Center
# Cell viability after compound treatment was measured using a luciferase-coupled ATP quantitation assay (CellTiter-Glo, Promega) in AREc32_fluc cells. The change of intracellular ATP content indicates the number of metabolically competent cells after compound treatment. AREc32_fluc cells were harvested from T225 flask and resuspended in phenol red free OPTI-MEM medium with 5% FBS. Then 5 microL of 200,000 cells/ml resuspended cells was dispensed into each well of white, solid bottom, 1536-well tissue culture-treated plates using a Multidrop Combi dispenser. After overnight culture at 37 degrees C with 5% CO2, a total of 23 nL of compounds at 7 selected concentrations from the cherry pick or positive control (40 uM stock of CDDO-IM and 2 mM of tBHQ) in DMSO was transferred to each well of the assay plate using a pintool (Kalypsys, San Diego, CA), and the plates were further incubated at 37 degrees C with 5% CO2 for 24 hours. After that, 4 microL of CellTilter-GloTM luminescent substrate mix (Promega) was added to each well. The plate was incubated at room temperature for 30 minutes. The plates were measured on a ViewLux plate reader (PerkinElmer) with clear filter.
# Potency is read from the fitted curve at half-maximal effect.
SMILES,"activity change, negative = cytotoxicity",Potency
CCOc1ccsc1C(=O)NNC(=O)c1ccco1,inactive: 1.67%,
Cc1nc(NCc2ccco2)nc2c1C(=O)CC(C)C2 (configuration not stated),inactive: -6.77%,
Nc1nonc1N/N=C/c1c(O)ccc2ccccc12,inactive: 8.84%,
Cc1cc(NC(=O)c2ccccc2)nc2c1c(=O)oc1ccccc12,inactive: 1.23%,
O=[N+]([O-])c1cccc2ccc(/C=C/c3ccc(F)cc3)nc12,inactive: -1.49%,
O=C(NCC1CCCO1)c1ccc([N+](=O)[O-])o1 (configuration not stated),inactive: -12.8%,
COc1ccc(N(CCCN2C(=O)c3cccc4cccc(c34)C2=O)C(=O)c2ccncc2)cc1,inactive: -0.299%,
CCn1nc(C(=O)Nc2cccc3ccccc23)c(Cl)c1Cl,inactive: -0.414%,
CNC(=O)c1ccsc1NC(=O)c1ccc(Cl)s1,inactive: 0.215%,
Cc1cc(C)c(-n2c(SCCS(=O)(=O)c3ccc(F)cc3)n[nH]c2=O)c(C)c1,inactive: 1.99%,
Nc1nc(Nc2cccc(Cl)c2)nc(NCCO)c1[N+](=O)[O-],inactive: 24.8%,
O=C1C(Cl)=C(N2CCN(c3ccccc3[N+](=O)[O-])CC2)C(=O)c2ccccc21,,active: 18.4 µM
CCn1c(=N)n(CC(=O)c2ccco2)c2ccccc21,inactive: 4.65%,
Oc1ccc(Cl)cc1N=Cc1sc2ccccc2c1Cl,inactive: -16.3%,
CCn1c(NC(=O)c2ccccc2)nc2ccccc21,inactive: -5.44%,
CN1C2CCC1/C(=C\c1ccccc1)C(=O)/C2=C\c1ccccc1,inactive: -5.9%,
Oc1ccc2ccccc2c1N=Nc1ccccn1,,active: 5.17 µM
CC1CCc2c(cc(-c3ccccc3)n2-c2ccc(C(=O)NC(C)C)cc2)C1 (configuration not stated),inactive: 2.77%,
Cc1cc(Cl)cc2sc(NC(=O)c3ccco3)nc12,inactive: 10.8%,

SMILES,"activity change, negative = cytotoxicity",Potency
CCOCCCNC(=O)c1ccc(-n2c(-c3ccccc3)cc3c2CCC(C)C3)cc1 (configuration not stated),inactive: 3.22%,
Cn1c(=O)c2nc(-c3ccccc3)oc2c2ccccc21,inactive: 8.18%,
Clc1ccc(-c2ccnc(-n3cccc3)n2)s1,inactive: 3.8%,
CC(C)N1C/C(=C/c2cccnc2)C(=O)/C(=C/c2cccnc2)C1,inactive: 1.16%,
CSc1nc(Oc2ccc(Cl)cc2)c2sccc2n1,inactive: 7.55%,
CCn1c(/C=C/c2ccccc2)nc2ccccc2c1=O,inactive: -0.439%,
CC(=O)Nc1ccc(S(=O)(=O)c2ccnc3cc(Cl)ccc23)cc1,inactive: 7.02%,
O=C(/C=C/c1cccs1)c1ccco1,inactive: -0.0849%,
O=C(Nc1cc(-c2nc3cc(Cl)ccc3o2)ccc1Cl)c1ccco1,inactive: 2.73%,
O=C(OCC(=O)N1CCCC1)c1cc([N+](=O)[O-])ccc1Cl,inactive: 0.711%,
COCCN(C(=O)COC(=O)/C=C/c1ccccc1Cl)c1c(N)n(Cc2ccccc2)c(=O)[nH]c1=O,inactive: 10.6%,
c1ccc(C2=Nn3c(nnc3-c3ccco3)SC2)cc1,inactive: 6.11%,
C/C(=N\NC(=O)CSc1nc2ccccc2s1)c1ccco1,inactive: 9.7%,
COC(=O)c1ccc2nc(-c3cccc(Cl)c3)c(Cc3ccccc3OC)n2c1,inactive: -9.39%,
CCOC(=O)c1ccsc1NC(=O)CCS(=O)(=O)c1ccccc1,inactive: 17.1%,
O=C1C=C(Nc2cccc(Cl)c2)CC(c2ccco2)C1 (configuration not stated),inactive: 3.61%,
COn1c(-c2ccccc2)nc2c1CCc1c-2no[n+]1[O-],inactive: 4.9%,
COC(=O)c1ccc2nc(-c3ccc(F)cc3)c(CC3CCCCC3)n2c1,inactive: -1.86%,

# Looked up above.
# activity change, negative = cytotoxicity with `CCn1nc(C(=O)Nc2cccc3ccccc23)c(Cl)c1Cl` reads inactive: -0.414%
# activity change, negative = cytotoxicity with `Cc1cc(Cl)cc2sc(NC(=O)c3ccco3)nc12` reads inactive: 10.8%

# Source: PubChem BioAssay AID651595 (National Center for Advancing Translational Sciences (NCATS), 2012)
